# In PubChem BioAssay AID485349 (National Center for Advancing Translational Sciences (NCATS), 2010):
# Hit rate of the full screen: of about 320,000 compounds, about 620 (0.19%) were called active. The shares of active, inactive and inconclusive entries below differ from those in the screen. Calls follow the shape of the dose curve; as a rule, active = well fitted activation curve with a large enough effect; inconclusive = small, poorly fitted or top-dose-only effect; inactive = no such curve, though single readings can be large or run the other way. Potencies of inconclusive entries are doubtful fits and often do not repeat.
# Assay: qHTS Assay for Identifying a Potential Treatment of Ataxia-Telangiectasia; also: nearly all actives have a fitted effect of over 45% in size
# Conditions: […] A-T fibroblasts, KAP-1 phosphorylation AlphaLISA, neocarzinostatin DNA damage 30 min before lysis; series mostly up to 57.5 µM
# Summary of the method: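 hTERT-immortalized A-T patient fibroblasts ([…]), 500 cells/well in OPTI-MEM, 1% FBS, got compounds for 60 min, then NCS for 30 min at 37C. Lysates were then assayed for phospho-KAP-1 by AlphaLISA (anti-pKAP1 donor, anti-KAP1 acceptor beads), 6 hr at 25C.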
# Potency is read from the fitted curve at half-maximal effect.
row,SMILES,Potency
1,Cn1c(=NC(=O)c2ccccc2[N+](=O)[O-])sc2cc(S(C)(=O)=O)ccc21,inactive
2,COC(=O)N1C(=O)[C@@](CC(C)C)(c2ccccc2)N1C(=O)OC,active: 35.5 µM
3,COC(=O)c1ccc(CN(c2ccc(C)cc2)S(=O)(=O)c2ccc3c(c2)OCCO3)o1,"inconclusive: 39.8 µM [activator, single point]"
4,CCCCN(C)c1nc(-c2ccco2)c2c(c1C#N)CC(C)(C)OC2,"inconclusive: 39.8 µM [activator, partial curve]"
5,COc1ccc(-c2nc3n(c2C)CCC3)cc1,active: 25.1 µM
6,CC(=O)c1ccc(S(=O)(=O)N2CCN(C(=O)CCC3CCCC3)CC2)cc1,"inconclusive: 3.55 µM [activator, single point]"
7,Cc1ccc(-c2noc(CCC(=O)NC3CCN(Cc4ccccc4)CC3)n2)cc1,"inconclusive: 3.98 µM [activator, partial curve]"
8,COc1ccc(CNC(=O)COc2cccnc2[N+](=O)[O-])cc1OC,"inconclusive: 2.82 µM [activator, full curve]"
9,Cc1ccc(CSc2nc3ccncc3n2CC(=O)Nc2cc(C)cc(C)c2)cc1,inactive
10,CCCC(=O)N1c2ccccc2C(=C2SC(C(=O)OC)=C(C(=O)OC)S2)C(=S)C1(C)C,inactive
11,CCOC(=O)CSC1=C(C#N)C(c2ccc(OC)cc2)C2=C(CC(C)(C)CC2=O)N1 (stereo not given),inactive
12,N#Cc1ccc(NC(=O)COC(=O)c2cccnc2Cl)cc1,"inconclusive: 28.2 µM [activator, single point]"
13,COc1cc(/C=C2\COC/C(=C\c3cc(OC)c(OC)c(OC)c3)C2=O)cc(OC)c1OC,"inconclusive: 5.01 µM [activator, full curve]"
14,COc1ccc(C=C2C=C(C(C)(C)C)C(=O)C(C(C)(C)C)=C2)cc1OC,"inconclusive: 35.5 µM [activator, single point]"
15,CCN1C(=O)[C@H]2[C@@H](c3ccc(-c4ccc(Cl)c(Cl)c4)cc3)N[C@@](CC(C)C)(C(=O)OC)[C@H]2C1=O,active: 35.5 µM
16,O=C1OC(COc2ccc(Br)cc2)CN1c1ccccc1 (stereo not given),inactive
17,CC(C)CC(=O)Nc1nc2ccc(S(=O)(=O)N3CCOCC3)cc2s1,inactive
18,CCCCNc1c(-c2ccc(OC)c(SC3CCCCC3)c2)nc2cnccn12,active: 22.4 µM
19,O=C1C2C3C=CC(C4CC34)C2C(=O)N1c1cc(Cl)ccn1 (stereo not given),"inconclusive: 0.708 µM [activator, full curve, poor fit]"
20,CC(=O)c1cccc(OCC(O)CNCC2COc3ccccc3O2)c1 (stereo not given),active: 50.1 µM
21,CCOC(=O)c1ccc(NC(=O)c2nc[nH]c2C(=O)N[C@@H](CC(C)C)C(=O)OC(C)(C)C)cc1,"inconclusive: 35.5 µM [activator, single point]"
22,CCOC(=O)c1cc2sccc2n1Cc1ccccc1,"inconclusive: 22.4 µM [activator, single point]"
23,Cc1ccc(S(=O)(=O)N2CCN(CC(=O)N/N=C\c3ccncc3)CC2)cc1,inactive
24,O=C(CCS(=O)(=O)c1ccc(Br)cc1)N1CCN(c2ccccc2Cl)CC1,inactive

# Exported with bars between the fields: part of the list above.
row | SMILES | Potency
16 | O=C1OC(COc2ccc(Br)cc2)CN1c1ccccc1 (stereo not given) | inactive
17 | CC(C)CC(=O)Nc1nc2ccc(S(=O)(=O)N3CCOCC3)cc2s1 | inactive
18 | CCCCNc1c(-c2ccc(OC)c(SC3CCCCC3)c2)nc2cnccn12 | active: 22.4 µM

# Later entries.

row,SMILES,Potency
1,COc1ccc(/C=C/c2nc(C#N)c(NCCN(C)C)o2)cc1OC,inactive
2,CC(=O)Nc1cc(C(F)(F)F)ccc1Oc1cccc(Br)c1,"inconclusive: 10 µM [activator, partial curve, poor fit]"
3,Cc1cccc2c1NC(=O)C21N2CCCC2C(C(=O)c2ccc3ccccc3c2)C12C(=O)Nc1ccccc12 (stereo not given),"inconclusive: 22.4 µM [activator, partial curve, poor fit]"
4,Cc1ccc(S(=O)(=O)[N-]c2nc3ccccc3nc2-n2cc[n+](Cc3ccccc3)c2)cc1,"inconclusive: 35.5 µM [activator, partial curve]"
5,Cc1ccc(C(C[N+](=O)[O-])Sc2ccc(N)cc2)cc1 (stereo not given),"inconclusive: 6.31 µM [activator, single point]"
6,COc1ccccc1Nc1nc(N)nc(CN2CCC(C)CC2)n1,inactive
7,CCCCCCCCNC(=O)/C(C#N)=C/c1ccccc1[N+](=O)[O-],active: 25.1 µM
8,Cc1ccc(CCNC(=O)C2CC(c3cccc(F)c3)=NO2)cc1 (stereo not given),active: 14.1 µM
9,CC1CC(C)CN(C(=O)COC(=O)c2c[nH]c3ccccc23)C1 (stereo not given),active: 10 µM
10,COc1cccc2c(=O)c3c(cnn3C)n(C)c12,"inconclusive: 35.5 µM [activator, partial curve]"
11,C/C=C/C(=O)N1CC2(CC(c3cccc(NC(=O)COc4ccc(Cl)cc4)c3)=NO2)C[C@@H]1C(N)=O (stereo not given in full),"inconclusive: 35.5 µM [activator, partial curve, poor fit]"
12,O=C(O)/C=C/C(=O)OC1CC2CCC1C2 (stereo not given),"inconclusive: 25.1 µM [activator, single point]"
13,O=C(N[C@@H](Cc1ccccc1)C(=O)CCl)OCc1ccccc1,"inconclusive: 11.2 µM [activator, partial curve]"
14,O=C(CNC(=O)c1ccc(Cl)cc1Cl)NCC(=O)Nc1ccccc1N1CCOCC1,"inconclusive: 35.5 µM [activator, partial curve]"
15,Cc1ccc(-c2cc(-c3ccc(F)cc3)nc(N)c2C#N)o1,"inconclusive: 31.6 µM [activator, single point]"
16,C=C(C)Cn1c(SCC(=O)N/N=C/c2ccccc2OCC(=O)O)nnc1-c1ccc(Br)cc1,active: 39.8 µM
17,CC(=O)c1ccc(-c2ccc(C(=O)Nc3nc(-c4ccccn4)cs3)o2)cc1,inactive
18,COc1cc2c(C#N)c(N3CCCC3)nc(N)c2c(N)n1,"inconclusive: 39.8 µM [activator, partial curve, poor fit]"
19,c1ccc(-c2cn(CC3CCCCC3)nn2)cc1,inactive
20,O=C(COc1c(Br)cc(Br)c2cccnc12)N1CCCCC1,inactive
21,CC(C)(C)OC(=O)N1CCN(C(=O)Cn2cc(CCO)nn2)CC1,inactive
22,Cc1c(-c2ccco2)[n+](=O)c2c(n1[O-])CCC2,"inconclusive: 22.4 µM [activator, partial curve]"
23,COc1ccc(Oc2ncnc3c2oc2ccc(Br)cc23)cc1,"inconclusive: 3.98 µM [activator, partial curve]"
24,CCn1c(=O)c(CCC(=O)N2CCN(c3ccccn3)CC2)c(C)c2c(C)nn(-c3cccc(C)c3)c21,"inconclusive: 22.4 µM [activator, partial curve]"

row,SMILES,Potency
1,Cc1ccnc(SCC(=O)Nc2sccc2C#N)n1,"inconclusive: 7.94 µM [activator, partial curve]"
2,CCCNC(=O)c1cc(Cl)c(NC(=O)C2=CSCCO2)cc1OC,inactive
3,CCCCc1ccc(S(=O)(=O)Nc2ccc(C)c(NS(C)(=O)=O)c2)cc1,"inconclusive: 39.8 µM [activator, single point]"
4,CCC12CN(C(=O)c3ccc([N+](=O)[O-])cc3)CC(CC)(CN(C(=O)c3ccc([N+](=O)[O-])cc3)C1)C2=O,active: 7.08 µM
5,CCC(C)Sc1ccc(-c2nc3cc(C)ccn3c2NC2CCCCC2)cc1 (stereo not given),"inconclusive: 22.4 µM [activator, partial curve]"
6,CCOC(=O)c1c(-c2ccccc2)oc2ccc(OCC(O)CNCCN(C)C)cc12 (stereo not given),active: 39.8 µM
7,CCCC(O)(c1ccc(CC)cc1)C(CN1CCOCC1)c1ccccc1 (stereo not given),active: 31.6 µM
8,C#CCNC(=O)C1=C[C@@H](c2cn(C(C)=O)c3ccccc23)C[C@@H](OCCCCO)O1,"inconclusive: 28.2 µM [activator, single point]"
9,CC(NCC(O)COCCC12CC3CC(CC(C3)C1)C2)c1ccccc1 (stereo not given),inactive
10,C/C(Cc1ccccc1)=N\NC(=O)CNC(=O)/C=C\c1ccccc1,"inconclusive: 5.62 µM [activator, full curve, poor fit]"
11,CCOc1ccccc1CNC(=O)Cn1c(=O)oc2ccccc21,"inconclusive: 3.55 µM [activator, partial curve]"
12,CCOC(=O)CNc1c(N2CCN(c3ccccn3)CC2)c(=O)c1=O,"inconclusive: 39.8 µM [activator, single point]"
13,Nc1ccc(C(=O)OCC(=O)Nc2ccc([N+](=O)[O-])cc2C(F)(F)F)cc1,inactive
14,Cc1ccc(C)c(OCC(=O)Nc2ccc(N3CCOCC3)cc2N2CCOCC2)c1,"inconclusive: 20 µM [activator, partial curve]"
15,COc1ccc2nc(NC(=O)C3CCCN(S(=O)(=O)c4cccs4)C3)sc2c1 (stereo not given),inactive
16,O=C1[C@@H]2C3C=CC(O3)[C@@H]2C(=O)N1c1ccccc1,"inconclusive: 39.8 µM [activator, single point]"
17,COc1ccc(Nc2nc(C(=O)N3CCc4cc(OC)c(OC)cc4C3)cs2)cc1,"inconclusive: 3.55 µM [activator, partial curve]"
18,CC(C)Cn1c(N)c(C(=O)NCC2CCCO2)c2nc3ccccc3nc21 (stereo not given),"inconclusive: 20 µM [activator, single point]"
19,O=C(COCc1cc(-c2ccc3c(c2)OCO3)on1)N1CCCCC1,"inconclusive: 1 µM [activator, full curve, poor fit]"
20,COc1ccc(CNC(=O)C(C)NCc2ccccc2Cl)cc1 (stereo not given),"inconclusive: 20 µM [activator, partial curve, poor fit]"
21,COCCNc1nc(-c2cc(-c3ccc(Cl)cc3)on2)cc(C(C)C)n1,"inconclusive: 39.8 µM [activator, single point]"
22,CN1CCN(CC#CCC(O)(c2ccccc2)c2ccccc2)CC1,active: 39.8 µM
